This series addresses T1, MGF (recombinant, clone 10) from COS cells (Ovis aries) (UniProt P42231).
T1 sequence (limits assumed): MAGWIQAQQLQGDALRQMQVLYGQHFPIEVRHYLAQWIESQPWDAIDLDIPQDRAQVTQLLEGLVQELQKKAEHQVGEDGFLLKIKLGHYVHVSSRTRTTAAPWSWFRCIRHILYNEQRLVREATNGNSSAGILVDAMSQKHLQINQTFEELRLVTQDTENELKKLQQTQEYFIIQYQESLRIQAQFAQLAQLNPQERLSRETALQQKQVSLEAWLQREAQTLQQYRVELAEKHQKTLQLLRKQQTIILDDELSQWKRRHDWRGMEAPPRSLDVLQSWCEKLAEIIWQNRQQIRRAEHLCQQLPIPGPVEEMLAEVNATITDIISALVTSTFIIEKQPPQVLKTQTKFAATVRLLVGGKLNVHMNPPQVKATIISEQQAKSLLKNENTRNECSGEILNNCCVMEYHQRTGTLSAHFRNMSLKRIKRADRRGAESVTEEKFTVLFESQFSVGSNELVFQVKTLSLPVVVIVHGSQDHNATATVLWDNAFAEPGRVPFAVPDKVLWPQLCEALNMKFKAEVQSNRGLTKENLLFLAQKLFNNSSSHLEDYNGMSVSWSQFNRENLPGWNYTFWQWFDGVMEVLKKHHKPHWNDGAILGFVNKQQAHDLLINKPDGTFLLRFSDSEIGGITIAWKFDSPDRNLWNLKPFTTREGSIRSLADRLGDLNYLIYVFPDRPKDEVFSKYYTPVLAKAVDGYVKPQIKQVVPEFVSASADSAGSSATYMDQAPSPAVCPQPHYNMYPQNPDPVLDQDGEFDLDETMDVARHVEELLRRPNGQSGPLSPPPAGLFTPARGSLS
Briefly: EMSA. Particulars: strong with long prolactin receptor plus prolactin, low without; competed by 100-fold molar excess of wild-type oligo; PTP1B prevents complex; protein in an extract.

The exact form of at least one protein or probe is not confirmed. Where cells or extracts were used, other partners may take part. Where a protein sequence is shown, tags need not be part of it.

For the sequence “AGATTTCTAGGAATTCAATCC (double strand) [bovine beta-casein MGF site]”, the binding result was “binds”.
